Experimental findings from article PMC10550995 are described below.

By UniProt entry, the sequences of proteins in these tests, tags left out. Residues count along the entry.
UniProt P38646, residues 47-679: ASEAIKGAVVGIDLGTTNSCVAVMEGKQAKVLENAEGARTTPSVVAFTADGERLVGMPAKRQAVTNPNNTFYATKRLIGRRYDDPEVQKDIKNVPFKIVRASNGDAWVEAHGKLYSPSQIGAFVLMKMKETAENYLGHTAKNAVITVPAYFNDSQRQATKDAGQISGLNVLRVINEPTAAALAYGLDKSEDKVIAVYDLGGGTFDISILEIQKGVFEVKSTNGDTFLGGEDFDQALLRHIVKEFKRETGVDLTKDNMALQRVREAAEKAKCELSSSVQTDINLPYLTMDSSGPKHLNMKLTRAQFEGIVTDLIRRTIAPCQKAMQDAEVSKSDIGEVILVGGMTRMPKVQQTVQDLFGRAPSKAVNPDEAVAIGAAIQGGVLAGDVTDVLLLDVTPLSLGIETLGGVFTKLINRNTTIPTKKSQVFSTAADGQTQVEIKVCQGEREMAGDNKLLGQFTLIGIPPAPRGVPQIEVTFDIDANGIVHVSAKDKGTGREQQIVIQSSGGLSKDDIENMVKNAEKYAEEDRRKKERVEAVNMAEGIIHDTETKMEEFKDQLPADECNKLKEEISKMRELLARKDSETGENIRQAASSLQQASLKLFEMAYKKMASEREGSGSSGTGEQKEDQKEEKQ
UniProt P11021, residues 19-654: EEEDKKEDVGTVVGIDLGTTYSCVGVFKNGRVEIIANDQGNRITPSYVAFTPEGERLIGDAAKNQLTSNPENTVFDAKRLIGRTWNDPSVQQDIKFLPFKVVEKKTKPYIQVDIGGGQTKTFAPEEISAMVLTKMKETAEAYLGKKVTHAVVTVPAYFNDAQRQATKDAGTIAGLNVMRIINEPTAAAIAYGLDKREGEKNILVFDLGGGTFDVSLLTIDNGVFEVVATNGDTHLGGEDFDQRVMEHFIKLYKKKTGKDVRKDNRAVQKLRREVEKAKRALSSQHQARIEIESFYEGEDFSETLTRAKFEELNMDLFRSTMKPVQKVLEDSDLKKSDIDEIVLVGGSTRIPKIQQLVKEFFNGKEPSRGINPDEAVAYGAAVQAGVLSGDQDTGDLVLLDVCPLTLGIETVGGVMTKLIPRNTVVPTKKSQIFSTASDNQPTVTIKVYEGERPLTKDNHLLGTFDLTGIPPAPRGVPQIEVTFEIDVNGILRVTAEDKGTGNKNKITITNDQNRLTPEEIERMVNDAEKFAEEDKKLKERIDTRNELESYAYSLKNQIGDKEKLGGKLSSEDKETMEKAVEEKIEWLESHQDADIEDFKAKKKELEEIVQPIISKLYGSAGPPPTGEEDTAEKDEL

One experiment deals with T1, 14-3-3γ-Myc (UniProt P61981).
T1 sequence: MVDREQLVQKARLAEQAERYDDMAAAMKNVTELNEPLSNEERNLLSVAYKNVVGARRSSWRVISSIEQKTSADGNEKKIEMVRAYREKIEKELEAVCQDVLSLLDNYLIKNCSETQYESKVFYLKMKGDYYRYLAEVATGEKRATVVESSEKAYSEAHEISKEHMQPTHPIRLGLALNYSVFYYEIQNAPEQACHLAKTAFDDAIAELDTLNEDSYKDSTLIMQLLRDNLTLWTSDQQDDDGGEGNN
Kind of experiment: co-IP; HepG2 cotransfected with 14-3-3γ-Myc and ENDOG-Flag or pLVX3-Flag for 48 h; lysed with Western/IP buffer with PMSF and phosphatase inhibitor cocktail.

For experiment [1], the target named is T2, 14-3-3γ, endogenous (human (endogenous in HepG2)) (UniProt P61981).
T2 sequence: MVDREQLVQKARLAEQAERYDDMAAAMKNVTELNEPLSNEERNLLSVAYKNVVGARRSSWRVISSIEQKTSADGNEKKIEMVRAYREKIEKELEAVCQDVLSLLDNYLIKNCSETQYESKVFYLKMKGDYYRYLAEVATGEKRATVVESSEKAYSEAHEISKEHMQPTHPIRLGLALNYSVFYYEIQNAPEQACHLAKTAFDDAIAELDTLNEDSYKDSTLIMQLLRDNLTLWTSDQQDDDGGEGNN
Kind of experiment: co-IP; HepG2 transfected with ENDOG-Flag or pLVX3-Flag for 48 h; partners endogenous; lysed with Western/IP buffer with PMSF and phosphatase inhibitor cocktail.

For experiment [2], the target named is Grp75, endogenous (human (endogenous in HepG2)) (UniProt P38646). Described as above.
For experiment [3], the target named is Bip, endogenous (human (endogenous in HepG2)) (UniProt P11021). The description is as above.
The target is the same in experiment [4]. Kind of experiment: proximity ligation; Duolink in situ PLA with anti-ENDOG and anti-Bip antibodies on fixed HepG2 cells, with or without 200 μM oleic acid for 24 h.
For experiment [5], the target named is T2, 14-3-3γ, endogenous (human (endogenous in HepG2)). Kind of experiment: co-IP; endogenous co-IP in HepG2: wild-type and ENDOG knockout cells; cells with or without 200 μM oleic acid for 24 h.
The target of experiment [6] is Bip, endogenous (human (endogenous in HepG2)) (UniProt P11021). The description is as above.
The target of a further experiment is Bip-Myc (UniProt P11021). Kind of experiment: co-IP; HepG2 cotransfected with Bip-Myc and pK-Myc or ENDOG plasmid for 48 h.

Results are given in words; binding and its absence hold for the method and conditions named. In cells and extracts the contact can be indirect. Some entries that bind do so weakly or less than the wild type. For some assays here: Where a sequence is shown, tags or fusion partners need not be part of it.

B1: ENDOG-Flag (protein, UniProt Q14249 49-297)
chain: AELPPVPGGPRGPGELAKYGLPGLAQLKSRESYVLCYDPRTRGALWVVEQLRPERLRGDGDRRECDFREDDSVHAYHRATNADYRGSGFDRGHLAAAANHRWSQKAMDDTFYLSNVAPQVPHLNQNAWNNLEKYSRSLTRSYQNVYVCTGPLFLPRTEADGKSYVKYQVIGKNHVAVPTHFFKVLILEAAGGQIELRTYVMPNAPVDEAIPLERFLVPIESIERASGLLFVPNILARAGSLKAITAGSK
For B1, the binding result (with 14-3-3γ-Myc; in experiment [1]; in experiment [2]; in experiment [3]) was “binds” in each case.

B2: Endonuclease G (ENDOG), endogenous (protein, UniProt Q14249 49-297)
chain: AELPPVPGGPRGPGELAKYGLPGLAQLKSRESYVLCYDPRTRGALWVVEQLRPERLRGDGDRRECDFREDDSVHAYHRATNADYRGSGFDRGHLAAAANHRWSQKAMDDTFYLSNVAPQVPHLNQNAWNNLEKYSRSLTRSYQNVYVCTGPLFLPRTEADGKSYVKYQVIGKNHVAVPTHFFKVLILEAAGGQIELRTYVMPNAPVDEAIPLERFLVPIESIERASGLLFVPNILARAGSLKAITAGSK
As for B2, the binding entry in experiment [4], in experiment [5] and in experiment [6] was “binds” in each case.

B3: ENDOG (overexpressing plasmid, control pK-Myc) (protein, UniProt Q14249 49-297)
chain: AELPPVPGGPRGPGELAKYGLPGLAQLKSRESYVLCYDPRTRGALWVVEQLRPERLRGDGDRRECDFREDDSVHAYHRATNADYRGSGFDRGHLAAAANHRWSQKAMDDTFYLSNVAPQVPHLNQNAWNNLEKYSRSLTRSYQNVYVCTGPLFLPRTEADGKSYVKYQVIGKNHVAVPTHFFKVLILEAAGGQIELRTYVMPNAPVDEAIPLERFLVPIESIERASGLLFVPNILARAGSLKAITAGSK
As for B3, the binding entry with Bip-Myc is listed as “binds”.
